# From patent US20150344535A1, “NEUROTROPHIN-TYROSINE KINASE RECEPTOR SIGNALING” (THE UNIVERSITY OF QUEENSLAND, priority 2012, published 2015)
# The chains behind the UniProt entries cited, without tags or fusion partners. Where a name states a change or a piece, a line headed by the entry shows the natural chain unless it says otherwise. A line that says so, or that is headed by a name, gives the form on record, which may keep a tag or linker. Residues count along the entry.
# p75^Δ-JUX (P07174, form named): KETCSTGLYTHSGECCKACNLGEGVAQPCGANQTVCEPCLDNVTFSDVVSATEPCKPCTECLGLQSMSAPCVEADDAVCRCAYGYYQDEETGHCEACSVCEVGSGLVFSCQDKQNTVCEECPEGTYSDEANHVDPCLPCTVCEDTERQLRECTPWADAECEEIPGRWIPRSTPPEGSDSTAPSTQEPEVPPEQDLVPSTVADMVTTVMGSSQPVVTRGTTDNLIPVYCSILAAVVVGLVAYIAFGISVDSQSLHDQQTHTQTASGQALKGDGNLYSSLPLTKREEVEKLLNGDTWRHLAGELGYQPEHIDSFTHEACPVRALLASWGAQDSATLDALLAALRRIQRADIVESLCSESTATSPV
# UniProt P01139, residues 122-239: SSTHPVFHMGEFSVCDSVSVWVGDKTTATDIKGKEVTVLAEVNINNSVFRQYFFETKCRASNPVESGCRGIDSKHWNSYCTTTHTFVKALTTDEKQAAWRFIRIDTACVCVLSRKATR
# Results are given in words; binding and its absence hold for the method and conditions named. Some entries that bind do so weakly or less than the wild type.
# Molecular target: p75^Δ-JUX (UniProt P07174)
# Assay: flow cytometry, 26 nM NGF-FITC 60 min on ice, transfected HEK293 cells
substance,measurement,value
NGF-FITC (from UniProt P01139 122-239) (ligand),binding,binds
